PubChem BioAssay AID248 (DTP/NCI, 2004)
The list is a part of this screen's results and no random one: it is rich in T/C values a quarter to a half above the control, in often repeated tests (any T/C) and in doses without a T/C. Other doses and runs of a compound stand elsewhere. T/C: endpoint of the treated group in % of that of the vehicle group. For survival time, this PubChem deposit counts one and a half times the control or more as active, and values a quarter to a half above the control carry no call in these data; other NCI protocols may use other cut-offs. Schedule codes are those of the source, taken here to give the interval after Q, in days (D) or hours (H), and the number of doses after X. Some entries were tested several times; the values are given in rising order.

Tested on: L1210 leukemia ip in BDF1 mice, survival T/C
Test: NCI In Vivo Anticancer Drug Screen. Data for tumor model L1210 Leukemia (intraperitoneal) in B6D2F1 (BDF1) mice
Details: T/C endpoint: mean survival time, higher T/C = longer survival

SMILES: CC(C)Cn1cnc2c(=S)nc(N)[nH]c21
- T/C (dose: 14.0 mg/kg/injection, schedule: Q01DX015 (ip), vehicle: other): 135 % of control
- T/C (dose: 21.0 mg/kg/injection, schedule: Q01DX015 (ip), vehicle: other): 136 % of control
- T/C (dose: 29.0 mg/kg/injection, schedule: Q01DX015 (ip), vehicle: carboxymethylcellulose (CMC)): 132 % of control
- T/C (dose: 30.0 mg/kg/injection, schedule: Q01DX015 (ip), vehicle: carboxymethylcellulose (CMC)): 132 % of control
- T/C (dose: 33.0 mg/kg/injection, schedule: Q01DX001 (ip), vehicle: carboxymethylcellulose (CMC)): 138 % of control
- T/C (dose: 36.0 mg/kg/injection, schedule: Q01DX015 (ip), vehicle: other): 129 % of control
- T/C (dose: 50.0 mg/kg/injection, schedule: Q01DX001 (ip), vehicle: carboxymethylcellulose (CMC)): 129 and 138 % of control
- T/C (dose: 88.8 mg/kg/injection, schedule: Q01DX001 (ip), vehicle: carboxymethylcellulose (CMC)): 134 % of control
- T/C (dose: 100.0 mg/kg/injection, schedule: Q01DX001 (ip), vehicle: other): 137 % of control
- T/C (dose: 133.0 mg/kg/injection, schedule: Q01DX001 (ip), vehicle: carboxymethylcellulose (CMC)): 137 % of control
- T/C (dose: 200.0 mg/kg/injection, schedule: Q01DX001 (ip), vehicle: other): 128 % of control
- T/C (dose: 300.0 mg/kg/injection, schedule: Q01DX001 (ip), vehicle: carboxymethylcellulose (CMC)): 132 % of control
- T/C (dose: 400.0 mg/kg/injection, schedule: Q01DX001 (ip), vehicle: other): 130 % of control
